Values from PubChem BioAssay AID1259405 (NCATS, 2018).
Screen: 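Knock-downs that lift recombinant protein yield in hamster ovary cells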 (primary screen). Cells: Chinese hamster CHO-K1 ovary cells with stable secreted eGFP expression. Reagents: single siRNA against mouse genes, 0.8 pmol siRNA per well (2 µl of 400 nM stock). Timing: 3 days. Measurement: 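Per-well intracellular GFP measured by laser scanning cytometry, plus viability from ATP luminescence, each relative to plate median of non-targeting control wells, in %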. Reading the numbers: GFP, % of control: higher = more GFP per well, higher productivity; viability (ATP), % of control: higher = more viable cells (more ATP). Hit rule: 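Called active when intracellular GFP, relative to negative control, is at or above 120%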.
Here is a random part of about 50,000 reagents tested. About 4,000 of all reagents (8%) were called active. 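Mouse siRNA library applied to hamster cells; one well for each siRNA.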 The numbers tell different reagents against one gene apart.

For Tspan17 #1, what does the deposit list?
GFP, % of control: 48.7; viability (ATP), % of control: 71.7; outcome: inactive

For Tspan17 #2, how do the results read?
GFP, % of control: 108; viability (ATP), % of control: 101; outcome: inactive

With Tspan17 #3, what does the deposit list?
GFP, % of control: 77; viability (ATP), % of control: 67.6; outcome: inactive

With Or6c69b #1, what does the deposit list?
GFP, % of control: 69.1; viability (ATP), % of control: 38.7; outcome: inactive

With Or6c69b #2, what does the deposit list?
GFP, % of control: 31.4; viability (ATP), % of control: 23.5; outcome: inactive

For Or6c69b #3, how do the results read?
GFP, % of control: 83.7; viability (ATP), % of control: 99.5; outcome: inactive

For Pex13 #1, what was measured?
GFP, % of control: 77.4; viability (ATP), % of control: 97.7; outcome: inactive

How did the screen score Pex13 #2?
GFP, % of control: 64.2; viability (ATP), % of control: 69.2; outcome: inactive

With Rc3h1 #1, what was measured?
GFP, % of control: 1.94; viability (ATP), % of control: 18.9; outcome: inactive

For Rc3h1 #2, what was measured?
GFP, % of control: 79.6; viability (ATP), % of control: 73.4; outcome: inactive

With Rc3h1 #3, what was measured?
GFP, % of control: 65.3; viability (ATP), % of control: 90; outcome: inactive

With Vmn1r81 #1, what was measured?
GFP, % of control: 37.3; viability (ATP), % of control: 25.3; outcome: inactive

Which result is listed for Vmn1r81 #2?
GFP, % of control: 74.8; viability (ATP), % of control: 91; outcome: inactive

What is on record for Vmn1r81 #3?
GFP, % of control: 83.4; viability (ATP), % of control: 72.8; outcome: inactive

With Hey2 #1, how do the results read?
GFP, % of control: 59.5; viability (ATP), % of control: 95.3; outcome: inactive

For Hey2 #2, how do the results read?
GFP, % of control: 82; viability (ATP), % of control: 89.9; outcome: inactive

For Ambn #1, what was measured?
GFP, % of control: 77.4; viability (ATP), % of control: 72.1; outcome: inactive

For Ambn #2, what does the deposit list?
GFP, % of control: 109; viability (ATP), % of control: 71.7; outcome: inactive

For Ambn #3, what was measured?
GFP, % of control: 91.4; viability (ATP), % of control: 73.3; outcome: inactive

What is on record for Cenpx #1?
GFP, % of control: 71.2; viability (ATP), % of control: 42.7; outcome: inactive

For Cenpx #2, what does the deposit list?
GFP, % of control: 111; viability (ATP), % of control: 120; outcome: inactive

With Cenpx #3, what was measured?
GFP, % of control: 121; viability (ATP), % of control: 101; outcome: active

For Suco #1, how do the results read?
GFP, % of control: 88.9; viability (ATP), % of control: 44.3; outcome: inactive

Which result is listed for Suco #2?
GFP, % of control: 50.6; viability (ATP), % of control: 66.5; outcome: inactive

With Suco #3, how do the results read?
GFP, % of control: 48.4; viability (ATP), % of control: 54; outcome: inactive

What is on record for Nip7 #1?
GFP, % of control: 62; viability (ATP), % of control: 80; outcome: inactive

For Nip7 #2, what was measured?
GFP, % of control: 61.1; viability (ATP), % of control: 69.5; outcome: inactive

What is on record for Nip7 #3?
GFP, % of control: 115; viability (ATP), % of control: 86.1; outcome: inactive

For Phkg2, what was measured?
GFP, % of control: 169; viability (ATP), % of control: 83.8; outcome: active

What is on record for Fscn2 #1?
GFP, % of control: 38.8; viability (ATP), % of control: 46.4; outcome: inactive

For Fscn2 #2, what does the deposit list?
GFP, % of control: 55.3; viability (ATP), % of control: 68.2; outcome: inactive

With Fscn2 #3, how do the results read?
GFP, % of control: 75.1; viability (ATP), % of control: 50; outcome: inactive

With Pafah2 #1, what was measured?
GFP, % of control: 73.7; viability (ATP), % of control: 72.6; outcome: inactive

With Pafah2 #2, what does the deposit list?
GFP, % of control: 103; viability (ATP), % of control: 71.8; outcome: inactive

What did the screen give for Bmp3 #1?
GFP, % of control: 65.9; viability (ATP), % of control: 44.8; outcome: inactive

What is on record for Bmp3 #2?
GFP, % of control: 56.9; viability (ATP), % of control: 60.4; outcome: inactive

With Bmp3 #3, what does the deposit list?
GFP, % of control: 65.9; viability (ATP), % of control: 49.9; outcome: inactive

Which result is listed for Camk2a #1?
GFP, % of control: 148; viability (ATP), % of control: 117; outcome: active

With Camk2a #2, how do the results read?
GFP, % of control: 88.8; viability (ATP), % of control: 64.9; outcome: inactive

With Camk2a #3, how do the results read?
GFP, % of control: 61.3; viability (ATP), % of control: 65.4; outcome: inactive

What did the screen give for Efl1 #1?
GFP, % of control: 72.9; viability (ATP), % of control: 72.9; outcome: inactive

For Efl1 #2, what does the deposit list?
GFP, % of control: 51.9; viability (ATP), % of control: 46; outcome: inactive

For Efl1 #3, how do the results read?
GFP, % of control: 88.6; viability (ATP), % of control: 81.8; outcome: inactive

With Fam13b #1, what does the deposit list?
GFP, % of control: 9.11; viability (ATP), % of control: 7.48; outcome: inactive

How did the screen score Fam13b #2?
GFP, % of control: 81.9; viability (ATP), % of control: 76.6; outcome: inactive

How did the screen score Fam13b #3?
GFP, % of control: 64.6; viability (ATP), % of control: 66.9; outcome: inactive

How did the screen score Yrdc #1?
GFP, % of control: 62.2; viability (ATP), % of control: 61.9; outcome: inactive

With Yrdc #2, what does the deposit list?
GFP, % of control: 49.3; viability (ATP), % of control: 64.1; outcome: inactive

For Yrdc #3, how do the results read?
GFP, % of control: 112; viability (ATP), % of control: 126; outcome: inactive

With Trim68 #1, what does the deposit list?
GFP, % of control: 59.1; viability (ATP), % of control: 55.7; outcome: inactive

What did the screen give for Trim68 #2?
GFP, % of control: 99.5; viability (ATP), % of control: 83.7; outcome: inactive

With Trim68 #3, how do the results read?
GFP, % of control: 98.6; viability (ATP), % of control: 81.2; outcome: inactive
